According to the supplement of paper PMC10849652:
The list shows a part of the results.

Amino acid sequences for entries named in this document (tags omitted). A change or cut given only in a name is not applied to a line headed by its entry.
UniProt Q9NX00: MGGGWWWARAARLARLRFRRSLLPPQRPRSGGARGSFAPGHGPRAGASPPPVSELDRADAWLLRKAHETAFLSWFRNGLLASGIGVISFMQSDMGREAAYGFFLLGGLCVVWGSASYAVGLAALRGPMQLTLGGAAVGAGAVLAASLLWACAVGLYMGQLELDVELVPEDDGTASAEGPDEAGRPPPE
UniProt Q5T1C6: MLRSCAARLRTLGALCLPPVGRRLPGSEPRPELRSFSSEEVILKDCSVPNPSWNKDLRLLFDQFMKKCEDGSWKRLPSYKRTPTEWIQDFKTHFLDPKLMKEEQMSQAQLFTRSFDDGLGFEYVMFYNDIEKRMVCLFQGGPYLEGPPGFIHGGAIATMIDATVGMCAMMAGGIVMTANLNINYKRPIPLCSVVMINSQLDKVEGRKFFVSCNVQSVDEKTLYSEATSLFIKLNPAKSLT
UniProt P04183: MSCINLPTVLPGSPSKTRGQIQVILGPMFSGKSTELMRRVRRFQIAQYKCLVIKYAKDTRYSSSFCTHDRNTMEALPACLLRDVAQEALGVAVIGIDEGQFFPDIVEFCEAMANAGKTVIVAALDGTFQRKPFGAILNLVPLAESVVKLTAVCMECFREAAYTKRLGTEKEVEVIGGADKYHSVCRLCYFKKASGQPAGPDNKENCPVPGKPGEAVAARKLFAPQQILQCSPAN
UniProt Q04726: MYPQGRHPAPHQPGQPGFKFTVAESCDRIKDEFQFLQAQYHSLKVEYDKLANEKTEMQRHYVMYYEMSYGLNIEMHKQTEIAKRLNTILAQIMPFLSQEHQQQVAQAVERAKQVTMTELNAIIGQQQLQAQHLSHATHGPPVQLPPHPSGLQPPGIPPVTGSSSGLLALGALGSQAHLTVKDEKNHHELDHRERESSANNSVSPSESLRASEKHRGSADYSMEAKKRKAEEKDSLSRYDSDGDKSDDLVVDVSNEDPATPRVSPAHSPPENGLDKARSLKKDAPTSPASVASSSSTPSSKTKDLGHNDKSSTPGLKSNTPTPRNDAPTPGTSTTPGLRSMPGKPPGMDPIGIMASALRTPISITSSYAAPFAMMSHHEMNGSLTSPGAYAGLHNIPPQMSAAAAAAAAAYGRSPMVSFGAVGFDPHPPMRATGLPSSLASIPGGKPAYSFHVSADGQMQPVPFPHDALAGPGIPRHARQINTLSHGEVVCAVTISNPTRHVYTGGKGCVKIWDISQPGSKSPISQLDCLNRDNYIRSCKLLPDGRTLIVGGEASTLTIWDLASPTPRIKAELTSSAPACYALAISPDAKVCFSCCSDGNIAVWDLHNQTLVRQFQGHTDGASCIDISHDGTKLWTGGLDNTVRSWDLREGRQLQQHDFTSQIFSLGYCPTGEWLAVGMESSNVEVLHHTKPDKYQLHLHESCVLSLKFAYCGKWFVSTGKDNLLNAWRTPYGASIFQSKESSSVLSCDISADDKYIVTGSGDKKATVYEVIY
UniProt O75663: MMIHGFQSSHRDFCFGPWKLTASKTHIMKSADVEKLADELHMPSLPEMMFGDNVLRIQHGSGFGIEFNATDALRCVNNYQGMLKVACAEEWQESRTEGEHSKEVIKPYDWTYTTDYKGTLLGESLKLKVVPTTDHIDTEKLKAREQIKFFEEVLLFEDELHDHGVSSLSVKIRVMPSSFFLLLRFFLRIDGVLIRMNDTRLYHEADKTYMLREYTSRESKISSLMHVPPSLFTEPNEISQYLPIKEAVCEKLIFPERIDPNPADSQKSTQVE
UniProt Q12893: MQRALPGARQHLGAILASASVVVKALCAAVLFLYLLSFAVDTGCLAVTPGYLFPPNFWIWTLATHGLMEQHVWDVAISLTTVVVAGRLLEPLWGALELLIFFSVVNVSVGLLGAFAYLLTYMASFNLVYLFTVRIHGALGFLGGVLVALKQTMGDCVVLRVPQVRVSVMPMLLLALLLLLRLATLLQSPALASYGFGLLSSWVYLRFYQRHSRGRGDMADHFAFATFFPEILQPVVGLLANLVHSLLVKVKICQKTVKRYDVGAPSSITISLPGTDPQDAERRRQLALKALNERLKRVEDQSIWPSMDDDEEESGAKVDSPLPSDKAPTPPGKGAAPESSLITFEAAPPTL
UniProt P62072: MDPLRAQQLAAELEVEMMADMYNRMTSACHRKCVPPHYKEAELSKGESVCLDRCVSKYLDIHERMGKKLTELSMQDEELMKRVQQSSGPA
UniProt Q86WV6: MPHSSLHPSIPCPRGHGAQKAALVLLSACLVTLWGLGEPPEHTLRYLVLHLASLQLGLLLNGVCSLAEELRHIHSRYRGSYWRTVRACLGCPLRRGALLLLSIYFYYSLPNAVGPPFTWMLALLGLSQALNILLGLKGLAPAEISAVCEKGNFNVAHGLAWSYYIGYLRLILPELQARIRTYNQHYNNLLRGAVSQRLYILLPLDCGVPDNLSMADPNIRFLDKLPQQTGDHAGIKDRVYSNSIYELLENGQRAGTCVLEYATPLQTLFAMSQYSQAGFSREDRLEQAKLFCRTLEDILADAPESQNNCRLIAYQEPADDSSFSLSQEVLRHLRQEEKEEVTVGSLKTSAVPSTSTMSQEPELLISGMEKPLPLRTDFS
UniProt Q9Y5L4: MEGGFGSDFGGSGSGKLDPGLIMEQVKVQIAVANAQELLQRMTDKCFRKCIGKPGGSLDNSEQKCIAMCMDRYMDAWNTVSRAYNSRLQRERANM
UniProt P49755: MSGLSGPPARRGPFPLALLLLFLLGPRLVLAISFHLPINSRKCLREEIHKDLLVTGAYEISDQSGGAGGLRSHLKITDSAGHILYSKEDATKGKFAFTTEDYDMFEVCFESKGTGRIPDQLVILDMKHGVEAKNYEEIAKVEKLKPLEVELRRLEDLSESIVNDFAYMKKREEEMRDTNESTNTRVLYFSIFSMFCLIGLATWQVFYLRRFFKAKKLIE
UniProt Q9H061: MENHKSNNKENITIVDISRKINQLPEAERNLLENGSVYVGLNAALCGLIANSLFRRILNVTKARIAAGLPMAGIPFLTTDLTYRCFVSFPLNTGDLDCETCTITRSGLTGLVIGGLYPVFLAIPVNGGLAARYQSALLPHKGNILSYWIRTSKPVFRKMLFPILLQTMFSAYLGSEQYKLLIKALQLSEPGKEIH
UniProt Q7Z7N9: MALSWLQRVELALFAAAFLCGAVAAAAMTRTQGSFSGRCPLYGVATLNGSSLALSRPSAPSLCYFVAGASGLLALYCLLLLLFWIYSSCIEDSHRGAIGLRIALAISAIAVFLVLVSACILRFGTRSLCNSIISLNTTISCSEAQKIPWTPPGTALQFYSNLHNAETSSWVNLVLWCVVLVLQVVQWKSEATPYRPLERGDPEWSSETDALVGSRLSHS
UniProt Q9BXJ8: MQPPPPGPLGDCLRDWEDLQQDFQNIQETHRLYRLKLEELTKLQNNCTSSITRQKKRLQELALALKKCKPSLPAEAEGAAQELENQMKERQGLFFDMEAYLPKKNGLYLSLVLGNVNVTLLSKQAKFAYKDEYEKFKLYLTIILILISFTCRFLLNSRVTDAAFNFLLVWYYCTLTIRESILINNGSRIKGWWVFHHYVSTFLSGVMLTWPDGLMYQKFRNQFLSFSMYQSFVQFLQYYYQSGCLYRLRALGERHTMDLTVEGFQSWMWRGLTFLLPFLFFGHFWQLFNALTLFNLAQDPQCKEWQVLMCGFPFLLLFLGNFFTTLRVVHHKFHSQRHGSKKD
UniProt Q9NPL8: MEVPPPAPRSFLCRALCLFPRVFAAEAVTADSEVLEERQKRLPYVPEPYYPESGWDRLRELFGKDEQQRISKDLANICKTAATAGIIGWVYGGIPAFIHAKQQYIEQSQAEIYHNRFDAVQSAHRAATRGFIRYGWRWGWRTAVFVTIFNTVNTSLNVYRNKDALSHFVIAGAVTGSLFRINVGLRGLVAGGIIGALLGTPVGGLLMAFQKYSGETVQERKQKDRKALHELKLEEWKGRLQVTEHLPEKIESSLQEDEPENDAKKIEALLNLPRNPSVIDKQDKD
UniProt Q7Z7H5: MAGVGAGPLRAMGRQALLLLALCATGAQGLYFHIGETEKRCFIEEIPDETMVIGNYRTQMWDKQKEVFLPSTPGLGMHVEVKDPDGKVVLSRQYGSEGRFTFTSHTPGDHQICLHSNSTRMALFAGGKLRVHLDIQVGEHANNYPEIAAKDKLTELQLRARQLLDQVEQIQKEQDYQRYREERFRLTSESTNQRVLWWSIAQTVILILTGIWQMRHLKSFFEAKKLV
UniProt Q5TEJ8: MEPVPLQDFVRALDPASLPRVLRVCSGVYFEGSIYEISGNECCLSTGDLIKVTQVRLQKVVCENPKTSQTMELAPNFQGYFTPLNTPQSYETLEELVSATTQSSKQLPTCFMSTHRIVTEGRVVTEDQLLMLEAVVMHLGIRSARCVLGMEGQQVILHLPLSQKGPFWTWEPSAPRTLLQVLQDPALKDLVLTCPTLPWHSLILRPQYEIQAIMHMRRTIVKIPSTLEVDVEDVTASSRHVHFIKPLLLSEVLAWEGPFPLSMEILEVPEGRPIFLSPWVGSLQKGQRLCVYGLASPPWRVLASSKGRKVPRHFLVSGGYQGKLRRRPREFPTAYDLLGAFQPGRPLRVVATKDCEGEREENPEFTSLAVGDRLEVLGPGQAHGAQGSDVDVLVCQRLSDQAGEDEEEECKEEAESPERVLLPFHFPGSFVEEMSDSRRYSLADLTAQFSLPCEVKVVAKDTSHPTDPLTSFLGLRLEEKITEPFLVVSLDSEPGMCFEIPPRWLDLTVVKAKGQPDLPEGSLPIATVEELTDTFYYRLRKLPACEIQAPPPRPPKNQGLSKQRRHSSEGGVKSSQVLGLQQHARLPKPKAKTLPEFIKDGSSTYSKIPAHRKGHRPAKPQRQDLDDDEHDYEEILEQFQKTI

Key:
Test in all cases: log2 fold change, soluble protein after heating vs DMSO (PISA); higher = thermal stabilisation; K562 lysate, 10 uM; active = over 0.2 and 3.5 SD of the protein, either way, in both replicates (recomputed)
lapatinib = compound: CS(=O)(=O)CCNCc1ccc(-c2ccc3ncnc(Nc4ccc(OCc5cccc(F)c5)c(Cl)c4)c3c2)o1 [lapatinib]
Method in brief: (§1)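 A 30 min treatment with 10 μM compound was applied to crude K562 extract at 1 mg/mL protein in PBS pH 7.4 with 1 mM MgCl2. Heating for 3 min spanned 48°C-58°C, after which aliquots were pooled, adjusted to 0.5% NP-40 at 4°C and spun at 21,000xg for 90 min. TMTpro 16plex LC-MS/MS of the supernatant, with channel sums equalised, gave values recorded as log-two fold change in thermal stability against solvent controls, from duplicates.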

pictilisib = compound: CS(=O)(=O)N1CCN(Cc2cc3nc(-c4cccc5[nH]ncc45)nc(N4CCOCC4)c3s2)CC1 [pictilisib]
Method in brief: as §1

crizotinib = compound: C[C@@H](Oc1cc(-c2cnn(C3CCNCC3)c2)cnc1N)c1c(Cl)ccc(F)c1Cl [crizotinib]
Method in brief: as §1

[1] = compound: C[C@H](C1=CC=C(C=C1)C(=O)NC2=C3C=CNC3=NC=C2)N
Method in brief: as §1

duvelisib = compound: C[C@H](Nc1ncnc2nc[nH]c12)c1cc2cccc(Cl)c2c(=O)n1-c1ccccc1 [duvelisib]
Method in brief: as §1

gandotinib = compound: Cc1cc(Nc2cc(CN3CCOCC3)c3nc(C)c(Cc4ccc(Cl)cc4F)n3n2)n[nH]1 [gandotinib]
Method in brief: as §1

tozasertib = compound: Cc1cc(Nc2cc(N3CCN(C)CC3)nc(Sc3ccc(NC(=O)C4CC4)cc3)n2)n[nH]1 [tozasertib]
Method in brief: as §1

doramapimod = compound: Cc1ccc(-n2nc(C(C)(C)C)cc2NC(=O)Nc2ccc(OCCN3CCOCC3)c3ccccc23)cc1 [doramapimod]
Method in brief: as §1

bafetinib = compound: Cc1ccc(NC(=O)c2ccc(CN3CC[C@H](N(C)C)C3)c(C(F)(F)F)c2)cc1Nc1nccc(-c2cncnc2)n1 [bafetinib]
Method in brief: as §1

[2] = compound: Cc1cccc(CC(=O)N2CCc3c2ccc(-c2cn(C)c4ncnc(N)c24)c3F)n1
Method in brief: as §1

nilotinib = compound: Cc1cn(-c2cc(NC(=O)c3ccc(C)c(Nc4nccc(-c5cccnc5)n4)c3)cc(C(F)(F)F)c2)cn1 [nilotinib]
Method in brief: as §1

[3] = compound: Cc1nc(Nc2n[nH]c3c2CN(C(=O)N[C@H](CN(C)C)c2ccccc2)C3(C)C)c2sccc2n1
Method in brief: as §1

dasatinib = compound: Cc1nc(Nc2ncc(C(=O)Nc3c(C)cccc3Cl)s2)cc(N2CCN(CCO)CC2)n1 [dasatinib]
Method in brief: as §1

[4] = compound: Cc1ncc(-c2ccnc(Nc3ccc(S(C)(=O)=O)cc3)n2)n1C(C)C
Method in brief: as §1

[5] = compound: Cn1cc(-c2ccc3c(c2)CCN3C(=O)Cc2cccc(C(F)(F)F)c2)c2c(N)ncnc21
Method in brief: as §1

quisinostat = compound: Cn1cc(CNCC2CCN(c3ncc(C(=O)NO)cn3)CC2)c2ccccc21 [quisinostat]
Method in brief: as §1

tipifarnib = compound: Cn1cncc1[C@@](N)(c1ccc(Cl)cc1)c1ccc2c(c1)c(-c1cccc(Cl)c1)cc(=O)n2C [tipifarnib]
Method in brief: as §1

[6] = compound: NC(=O)Nc1cc(-c2cccc(F)c2)sc1C(=O)N[C@H]1CCCNC1
Method in brief: as §1

[7] = compound: NC(=O)c1cnc(N[C@@H]2CCCC[C@@H]2N)nc1Nc1cccc(-n2nccn2)c1
Method in brief: as §1

[8] = compound: NC1(c2ccc(-c3nc4ccn5c(=O)[nH]nc5c4cc3-c3ccccc3)cc2)CCC1
Method in brief: as §1

Measured: log2 fold change

TMEM160 (UniProt Q9NX00)
inactive: lapatinib 0.024 | pictilisib 0.052 | crizotinib 0.087 | [1] -0.074 | duvelisib -0.036 | gandotinib 0.066 | tozasertib 0.091 | doramapimod -0.096 | bafetinib -0.034 | [2] 0.033 | nilotinib 0.183 | [3] -0.259 | dasatinib 0.082 | [4] 0.01 | [5] -0.084 | quisinostat 0.003 | tipifarnib -0.399 | [6] 0.024 | [7] -0.029 | [8] -0.006

THEM4 (UniProt Q5T1C6)
inactive: lapatinib 0.008 | pictilisib 0.008 | crizotinib -0.014 | [1] 0.005 | duvelisib 0.012 | gandotinib 0.026 | tozasertib -0.018 | doramapimod 0.036 | bafetinib 0.011 | [2] -0.047 | nilotinib -0.002 | [3] 0.032 | dasatinib 0.052 | [4] -0.107 | [5] 0.084 | quisinostat -0.067 | tipifarnib 0.022 | [6] 0.014 | [7] -0.009 | [8] -0.011

TK1 (UniProt P04183)
inactive: lapatinib -0.006 | pictilisib 0.022 | crizotinib 0.022 | [1] -0.133 | duvelisib 0.023 | gandotinib 0.062 | tozasertib 0 | doramapimod 0 | bafetinib 0.009 | [2] 0.021 | nilotinib -0.009 | [3] 0.002 | dasatinib 0.004 | [4] 0.003 | [5] -0.009 | quisinostat -0.03 | tipifarnib 0.015 | [6] -0.005 | [7] -0.043 | [8] -0.003

TLE3 isoform 4 (UniProt Q04726)
inactive: lapatinib -0.01 | pictilisib 0.008 | crizotinib 0.003 | [1] 0.004 | duvelisib -0.015 | gandotinib 0 | tozasertib -0.029 | doramapimod -0.016 | bafetinib 0.1 | [2] -0.048 | nilotinib 0.011 | [3] 0.053 | dasatinib -0.002 | [4] 0.001 | [5] -0.038 | quisinostat 0.008 | tipifarnib -0.003 | [6] 0.012 | [7] 0.001 | [8] -0.003

TIPRL (UniProt O75663)
inactive: lapatinib 0.005 | pictilisib -0.004 | crizotinib -0.023 | [1] -0.056 | duvelisib 0.016 | gandotinib 0.027 | tozasertib 0.004 | doramapimod -0.001 | bafetinib 0.03 | [2] 0.004 | nilotinib 0.011 | [3] 0.02 | dasatinib 0.026 | [4] -0.001 | [5] -0.02 | quisinostat -0.014 | tipifarnib -0.006 | [6] -0.013 | [7] -0.011 | [8] 0.017

TMEM115 (UniProt Q12893)
inactive: lapatinib -0.062 | pictilisib -0.046 | crizotinib -0.034 | [1] -0.025 | duvelisib 0.058 | gandotinib 0.036 | tozasertib -0.005 | doramapimod 0.073 | bafetinib -0.058 | [2] -0.028 | nilotinib 0.012 | [3] -0.109 | dasatinib 0.05 | [4] 0.073 | [5] 0.031 | quisinostat -0.061 | tipifarnib 0.004 | [6] 0.051 | [7] 0.06 | [8] -0.054

TIMM10 (UniProt P62072)
inactive: lapatinib 0.031 | pictilisib 0.04 | crizotinib 0.015 | [1] -0.039 | duvelisib -0.019 | gandotinib 0.019 | tozasertib 0.064 | doramapimod -0.009 | bafetinib -0.036 | [2] 0.012 | nilotinib -0.013 | [3] 0.024 | dasatinib 0.042 | [4] -0.017 | [5] 0.057 | quisinostat 0.045 | tipifarnib 0.037 | [6] -0.021 | [7] 0.025 | [8] 0.013

TMEM173 (UniProt Q86WV6)
inactive: lapatinib -0.007 | pictilisib -0.001 | crizotinib 0.023 | [1] -0.03 | duvelisib -0.041 | gandotinib -0.114 | tozasertib 0.031 | doramapimod -0.107 | bafetinib 0.03 | [2] 0.028 | nilotinib -0.034 | [3] -0.041 | dasatinib -0.091 | [4] -0.113 | [5] 0.043 | quisinostat -0.108 | tipifarnib 0.021 | [6] -0.023 | [7] -0.013 | [8] -0.036

3 neighbouring entries already listed, for reference:
TMEM160 (UniProt Q9NX00)
inactive: lapatinib 0.024 | pictilisib 0.052 | crizotinib 0.087 | [1] -0.074 | duvelisib -0.036 | gandotinib 0.066 | tozasertib 0.091 | doramapimod -0.096 | bafetinib -0.034 | [2] 0.033 | nilotinib 0.183 | [3] -0.259 | dasatinib 0.082 | [4] 0.01 | [5] -0.084 | quisinostat 0.003 | tipifarnib -0.399 | [6] 0.024 | [7] -0.029 | [8] -0.006

THEM4 (UniProt Q5T1C6)
inactive: lapatinib 0.008 | pictilisib 0.008 | crizotinib -0.014 | [1] 0.005 | duvelisib 0.012 | gandotinib 0.026 | tozasertib -0.018 | doramapimod 0.036 | bafetinib 0.011 | [2] -0.047 | nilotinib -0.002 | [3] 0.032 | dasatinib 0.052 | [4] -0.107 | [5] 0.084 | quisinostat -0.067 | tipifarnib 0.022 | [6] 0.014 | [7] -0.009 | [8] -0.011

TK1 (UniProt P04183)
inactive: lapatinib -0.006 | pictilisib 0.022 | crizotinib 0.022 | [1] -0.133 | duvelisib 0.023 | gandotinib 0.062 | tozasertib 0 | doramapimod 0 | bafetinib 0.009 | [2] 0.021 | nilotinib -0.009 | [3] 0.002 | dasatinib 0.004 | [4] 0.003 | [5] -0.009 | quisinostat -0.03 | tipifarnib 0.015 | [6] -0.005 | [7] -0.043 | [8] -0.003

Further records follow.

TIMM13 (UniProt Q9Y5L4)
inactive: lapatinib 0.012 | pictilisib -0.039 | crizotinib 0.045 | [1] 0.014 | duvelisib 0.068 | gandotinib 0.007 | tozasertib 0.032 | doramapimod 0.052 | bafetinib 0.084 | [2] -0.021 | nilotinib -0.004 | [3] 0.056 | dasatinib -0.042 | [4] 0.006 | [5] 0.009 | quisinostat 0.008 | tipifarnib -0.002 | [6] -0.021 | [7] -0.012 | [8] 0.028

TMED10 (UniProt P49755)
inactive: lapatinib -0.01 | pictilisib -0.05 | crizotinib -0.04 | [1] 0.095 | duvelisib 0.017 | gandotinib -0.047 | tozasertib 0.005 | doramapimod -0.03 | bafetinib 0.071 | [2] -0.093 | nilotinib 0.016 | [3] -0.027 | dasatinib 0.039 | [4] -0.007 | [5] 0.025 | quisinostat 0.029 | tipifarnib -0.021 | [6] 0.006 | [7] -0.017 | [8] 0.011

TMEM126A (UniProt Q9H061)
inactive: lapatinib -0.028 | pictilisib -0.011 | crizotinib 0.06 | [1] 0.006 | duvelisib 0.075 | gandotinib 0.013 | tozasertib 0.016 | doramapimod -0.073 | bafetinib -0.033 | [2] 0.054 | nilotinib 0.089 | [3] -0.009 | dasatinib -0.014 | [4] -0.068 | [5] -0.011 | quisinostat 0.177 | tipifarnib 0.015 | [6] 0.02 | [7] 0.01 | [8] -0.079

TMEM179B (UniProt Q7Z7N9)
inactive: lapatinib 0.014 | pictilisib 0.016 | crizotinib -0.07 | [1] -0.039 | duvelisib 0.019 | gandotinib 0.08 | tozasertib 0.089 | doramapimod -0.201 | bafetinib -0.058 | [2] 0.092 | nilotinib 0 | [3] 0.169 | dasatinib 0.068 | [4] 0.239 | [5] -0.095 | quisinostat -0.022 | tipifarnib -0.138 | [6] -0.085 | [7] -0.01 | [8] 0.006

TMEM120A (UniProt Q9BXJ8)
inactive: lapatinib -0.079 | pictilisib -0.134 | crizotinib -0.093 | [1] -0.001 | duvelisib 0.026 | gandotinib -0.217 | tozasertib 0.068 | doramapimod -0.022 | bafetinib -0.054 | [2] 0.194 | nilotinib -0.009 | [3] -0.031 | dasatinib -0.174 | [4] -0.089 | [5] -0.057 | quisinostat -0.108 | tipifarnib -0.03 | [6] 0.006 | [7] 0.058 | [8] 0.06

TIMMDC1 (UniProt Q9NPL8)
inactive: lapatinib -0.007 | pictilisib -0.014 | crizotinib 0.018 | [1] -0.047 | duvelisib 0.027 | gandotinib 0.027 | tozasertib -0.009 | doramapimod -0.027 | bafetinib -0.046 | [2] 0.062 | nilotinib 0.035 | [3] -0.019 | dasatinib 0.018 | [4] 0.022 | [5] -0.046 | quisinostat 0.036 | tipifarnib -0.005 | [6] -0.028 | [7] -0.026 | [8] -0.008

TMED4 (UniProt Q7Z7H5)
inactive: lapatinib 0.016 | pictilisib 0.052 | crizotinib 0 | [1] 0.192 | duvelisib -0.007 | gandotinib 0.017 | tozasertib -0.012 | doramapimod -0.002 | bafetinib 0.043 | [2] 0.015 | nilotinib 0.051 | [3] -0.073 | dasatinib 0.008 | [4] 0.04 | [5] -0.038 | quisinostat 0.091 | tipifarnib 0 | [6] -0.04 | [7] -0.016 | [8] -0.029

THEMIS2 (UniProt Q5TEJ8)
inactive: lapatinib -0.052 | pictilisib 0.029 | crizotinib -0.025 | [1] 0.004 | duvelisib -0.026 | gandotinib -0.001 | tozasertib 0.006 | doramapimod -0.042 | bafetinib -0.059 | [2] 0.065 | nilotinib -0.096 | [3] 0.06 | dasatinib -0.092 | [4] -0.144 | [5] 0.059 | quisinostat 0.03 | tipifarnib -0.039 | [6] 0.051 | [7] 0.095 | [8] 0.019
